Results as given in article PMC3416822.
These are yes or no findings as the source states them, for the method shown. A result given as binding can be weak or reduced; the word gives no strength.

Biological target: TbPin1 (Trypanosoma brucei)
Experiment: NMR titration; 15N-labelled TbPin1 (initial 0.4 mM) titrated stepwise with the unlabelled phosphorylated peptide to a final molar ratio of 1:8; 2D 1H-15N HSQC after each step; 20 mM sodium phosphate, 90% H2O, 10% D2O, pH 7.0; 298 K; both purified

SSYFSGTPLEDDSD (phosphothreonine at position 7 of the peptide ([p]T, T7)) [phosphorylated peptide {SSYFSG[p]TPLEDDSD} derived from Agamous-like 24 (AGL24)]
binding: binds weakly
